Data as given in PubChem BioAssay AID1508588 (Peter MacCallum Cancer Centre, 2020)
Purpose: 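Which gene losses make BRAF-mutant melanoma cells more responsive to vemurafenib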 (primary screen). Cell system: human WM266.4 melanoma cells (BRAF V600 mutant). Knock-down reagent: siRNA pool against human genes, 40 nM. Duration: 96 h from transfection to read-out. Challenge: vemurafenib 300 nM (about IC25), added 48 h after transfection, for 48 h; comparison arm got DMSO vehicle only. Measured: 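Cell gain (DAPI nuclei at end minus before drug, mean of two replicates) and medium lactate by absorbance per cell, both as ratio to non-targeting siRNA, also grouped into fold-change classes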. Scale: cell gain with vemurafenib: higher = more cell gain than with non-targeting siRNA; lactate per cell with vemurafenib: higher = more lactate made per cell. Active means: 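a knock-down counts as enhancing when its fold-change classes with vehicle and with vemurafenib, taken together, show a stronger drug effect on cell gain or lactate per cell; exact class pairs not stated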. Meaning of the calls: active = enhances vemurafenib effect; inactive = no enhancement seen.
The deposit covers about 18,000 reagents; this is a random part of them. In the full data, 790 (4.4%) got an active call. 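Calls rest on a combination of fold-change classes in drug and vehicle arms, not all shown here.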 Unmarked entries are inactive.

gene knocked down | cell gain with vemurafenib | lactate per cell with vemurafenib
CMPK1 (cytidine/uridine monophosphate kinase 1) | 0.37 | 0.89
TRIM22 (tripartite motif containing 22) | 1.07 | 0.72
KLK4 (kallikrein related peptidase 4) | 0.22 | 1.68
UBFD1 (ubiquitin family domain containing 1) | 0.87 | 0.62
SPATA21 (spermatogenesis associated 21) | 0.36 | 2.5
TCN1 (transcobalamin 1) | 0.52 | 0.89
ECSCR | 0.43 | 0.89
SLC6A18 | 0.41 | 1.44
GOLPH3 (golgi phosphoprotein 3) | 0.38 | 0.66
FUBP3 (far upstream element binding protein 3) | 1.38 | 0.74
WNT6 (Wnt family member 6) | 0.9 | 0.68
RAPGEFL1 (Rap guanine nucleotide exchange factor like 1) | 0.69 | 1
P4HA3 (prolyl 4-hydroxylase subunit alpha 3) | 0.48 | 1.31
RBFOX1 (RNA binding fox-1 homolog 1) | 1 | 0.78
KIT (KIT proto-oncogene, receptor tyrosine kinase) | 0.55 | 0.88
NLRP1 (NLR family pyrin domain containing 1) | 0.54 | 0.77
RBM15B (RNA binding motif protein 15B) | -0.09 | 1.75
RIMKLB (ribosomal modification protein rimK like family member B) | 0.97 | 0.76
DUSP7 (dual specificity phosphatase 7) | 0.86 | 0.82
EIF3F (eukaryotic translation initiation factor 3 subunit F) | 0.29 (active) | 0.32
TMEM134 (transmembrane protein 134) | 0.5 | 2.16
RPL27 (ribosomal protein L27) | -0.04 | 1.64
PCDHA5 (protocadherin alpha 5) | 0.95 | 0.99
RNASE2 (ribonuclease A family member 2) | 1.04 | 1.23
ARSB (arylsulfatase B) | 0.28 | 0.34
BBS4 (Bardet-Biedl syndrome 4) | 0.97 | 0.94
DNAH10 (dynein axonemal heavy chain 10) | 1.3 | 0.64
ARC (activity regulated cytoskeleton associated protein) | 0.1 | 1.04
OR6B1 (olfactory receptor family 6 subfamily B member 1) | 0.66 | 1.02
KRT36 (keratin 36) | 0.35 | 1.47
POMGNT2 | 0.5 | 1.36
LHFPL2 (LHFPL tetraspan subfamily member 2) | 0.59 | 0.62
RHOU (ras homolog family member U) | 0.75 | 1.27
ABHD15 (abhydrolase domain containing 15) | 0.1 (active) | 0.04
GNG7 (G protein subunit gamma 7) | 0.5 | 0.64
HNRNPLL (heterogeneous nuclear ribonucleoprotein L like) | 0.42 | 0.86
ZNF222 (zinc finger protein 222) | 0.81 | 0.61
KLHL5 (kelch like family member 5) | 0.6 | 0.81
ERCC1 (ERCC excision repair 1, endonuclease non-catalytic subunit) | 0.6 | 1.34
KLHL31 (kelch like family member 31) | 0.87 | 0.63
IL18BP (interleukin 18 binding protein) | 0.47 | 2.04
CLMN (calmin) | 1.18 | 0.3
CXXC4 (CXXC finger protein 4) | 0.39 | 1.73
SCD5 (stearoyl-CoA desaturase 5) | 0.46 | 0.96
C1orf21 (chromosome 1 open reading frame 21) | 0.49 | 1.25
DHTKD1 (dehydrogenase E1 and transketolase domain containing 1) | 0.63 | 0.79
TPM3 (tropomyosin 3) | 0.73 | 0.76
ICAM3 (intercellular adhesion molecule 3) | 0.47 | 0.73
CYP2C18 (cytochrome P450 family 2 subfamily C member 18) | 0.78 | 0.64
LAMP3 (lysosome associated membrane protein 3) | 0.48 | 1.25
IGF2BP1 (insulin like growth factor 2 mRNA binding protein 1) | 0.38 (active) | 0.46
BORCS8-MEF2B (BORCS8-MEF2B readthrough) | 0.98 | 1.55
RHAG (Rh associated glycoprotein) | 0.37 (active) | 0.49
MTNR1A (melatonin receptor 1A) | 1.06 | 0.52
SNTN (sentan, cilia apical structure protein) | 0.96 | 0.67
STK11IP (serine/threonine kinase 11 interacting protein) | 0.77 | 1.39
NANOG (Nanog homeobox) | -0.01 | 1.4
OR5H15 (olfactory receptor family 5 subfamily H member 15) | 0.32 | 2.26
LAPTM4A (lysosomal protein transmembrane 4 alpha) | 0.27 | 0.44
KIF18B (kinesin family member 18B) | 0.92 | 0.5
DMRT1 (doublesex and mab-3 related transcription factor 1) | 0.53 | 0.97
KHDRBS1 | 0.9 | 0.66
NDUFV2 (NADH:ubiquinone oxidoreductase core subunit V2) | 0.41 | 2.66
CABYR (calcium binding tyrosine phosphorylation regulated) | 0.46 | 1.12
NLRP4 (NLR family pyrin domain containing 4) | 0.71 | 1.4
NR1I3 (nuclear receptor subfamily 1 group I member 3) | 0.68 | 0.94
CHMP3 (charged multivesicular body protein 3) | 0.66 | 0.65
CDCA8 (cell division cycle associated 8) | -0.23 | 6.57
SELENBP1 (selenium binding protein 1) | 1.05 (active) | 0.19
OR8U1 (olfactory receptor family 8 subfamily U member 1) | 0.68 | 1.15
ESRP1 (epithelial splicing regulatory protein 1) | 0.58 | 1.51
OR4F15 (olfactory receptor family 4 subfamily F member 15) | 1 | 1.09
RHBDF1 (rhomboid 5 homolog 1) | 0.75 | 0.38
HIKESHI (heat shock protein nuclear import factor hikeshi) | 0.46 | 1.58
TACC2 (transforming acidic coiled-coil containing protein 2) | 0.15 | 1.96
VTCN1 (V-set domain containing T cell activation inhibitor 1) | 0.44 | 1.4
MFAP2 (microfibril associated protein 2) | 0.4 | 1.79
LRRC73 (leucine rich repeat containing 73) | 0.38 | 1.36
VDR (vitamin D receptor) | 0.47 | 0.99
PIGQ (phosphatidylinositol glycan anchor biosynthesis class Q) | 0.54 | 0.7
XYLT2 (xylosyltransferase 2) | 0.74 | 0.97
MGAT2 | 0.31 | 0.84
RXRB (retinoid X receptor beta) | 0.58 | 0.57
NSMCE2 (NSE2 SUMO ligase component of SMC5/6 complex) | 0.25 | 1.37

Look-ups from the list:
Under “lactate per cell with vemurafenib”, TRIM22 (tripartite motif containing 22) has 0.72
CHMP3 (charged multivesicular body protein 3), cell gain with vemurafenib → 0.66
LAMP3 (lysosome associated membrane protein 3), lactate per cell with vemurafenib: 1.25
Under “lactate per cell with vemurafenib”, LAPTM4A (lysosomal protein transmembrane 4 alpha) is entered as 0.44
For “lactate per cell with vemurafenib”, RHBDF1 (rhomboid 5 homolog 1) reads 0.38
ABHD15 (abhydrolase domain containing 15), lactate per cell with vemurafenib: 0.04 (active)
